US10125112B2

The chains behind the UniProt entries cited, without tags or fusion partners.
UniProt Q9HBX9, whole entry: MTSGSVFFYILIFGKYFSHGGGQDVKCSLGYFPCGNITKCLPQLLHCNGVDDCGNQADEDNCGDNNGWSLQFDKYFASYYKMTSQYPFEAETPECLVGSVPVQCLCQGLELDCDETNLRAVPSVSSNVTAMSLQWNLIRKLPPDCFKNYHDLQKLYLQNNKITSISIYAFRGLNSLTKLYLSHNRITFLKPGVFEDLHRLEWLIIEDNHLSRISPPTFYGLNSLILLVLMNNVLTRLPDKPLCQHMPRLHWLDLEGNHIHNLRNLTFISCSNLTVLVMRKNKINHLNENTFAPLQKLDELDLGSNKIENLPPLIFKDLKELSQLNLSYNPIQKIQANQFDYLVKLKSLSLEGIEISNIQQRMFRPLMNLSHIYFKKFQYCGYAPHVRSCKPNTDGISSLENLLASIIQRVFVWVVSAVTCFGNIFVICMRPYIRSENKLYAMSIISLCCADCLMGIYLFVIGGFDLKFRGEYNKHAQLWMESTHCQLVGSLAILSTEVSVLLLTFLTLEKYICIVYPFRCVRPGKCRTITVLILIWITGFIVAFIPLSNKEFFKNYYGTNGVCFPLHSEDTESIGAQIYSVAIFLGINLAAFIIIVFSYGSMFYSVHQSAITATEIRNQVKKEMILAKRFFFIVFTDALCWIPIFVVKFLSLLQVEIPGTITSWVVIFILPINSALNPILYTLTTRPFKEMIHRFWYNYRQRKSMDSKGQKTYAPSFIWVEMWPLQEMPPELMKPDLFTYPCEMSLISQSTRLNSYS

Biological target: RXFP1 (Homo sapiens, UniProt Q9HBX9)
Experiment: RXFP1 cAMP assay in HEK293-RXFP1 cells (HTRF)
Format: cell-based
Conditions: percentage of the maximal receptor activation induced by high concentrations of forskolin; Tables 1-7

CCOc1ccccc1C(=O)Nc1ccccc1C(=O)Nc1cccc(C(C)(C)C)c1
Max Response: 93%

CCOc1ccccc1C(=O)Nc1ccccc1C(=O)Nc1cccnc1
Max Response: 37%

The match of structure and compound is tentative.
